# Test results from the supplement of paper PMC12067093, “Discovery and optimisation of a covalent ligand for TRIM25 and its application to targeted protein ubiquitination” (Chemical Science, 2025).
# Chains of the proteins cited; added tags and fusions are not shown. Lines headed by an entry give the natural chain unless they say otherwise; changes in a name come on top.
# UniProt O43592: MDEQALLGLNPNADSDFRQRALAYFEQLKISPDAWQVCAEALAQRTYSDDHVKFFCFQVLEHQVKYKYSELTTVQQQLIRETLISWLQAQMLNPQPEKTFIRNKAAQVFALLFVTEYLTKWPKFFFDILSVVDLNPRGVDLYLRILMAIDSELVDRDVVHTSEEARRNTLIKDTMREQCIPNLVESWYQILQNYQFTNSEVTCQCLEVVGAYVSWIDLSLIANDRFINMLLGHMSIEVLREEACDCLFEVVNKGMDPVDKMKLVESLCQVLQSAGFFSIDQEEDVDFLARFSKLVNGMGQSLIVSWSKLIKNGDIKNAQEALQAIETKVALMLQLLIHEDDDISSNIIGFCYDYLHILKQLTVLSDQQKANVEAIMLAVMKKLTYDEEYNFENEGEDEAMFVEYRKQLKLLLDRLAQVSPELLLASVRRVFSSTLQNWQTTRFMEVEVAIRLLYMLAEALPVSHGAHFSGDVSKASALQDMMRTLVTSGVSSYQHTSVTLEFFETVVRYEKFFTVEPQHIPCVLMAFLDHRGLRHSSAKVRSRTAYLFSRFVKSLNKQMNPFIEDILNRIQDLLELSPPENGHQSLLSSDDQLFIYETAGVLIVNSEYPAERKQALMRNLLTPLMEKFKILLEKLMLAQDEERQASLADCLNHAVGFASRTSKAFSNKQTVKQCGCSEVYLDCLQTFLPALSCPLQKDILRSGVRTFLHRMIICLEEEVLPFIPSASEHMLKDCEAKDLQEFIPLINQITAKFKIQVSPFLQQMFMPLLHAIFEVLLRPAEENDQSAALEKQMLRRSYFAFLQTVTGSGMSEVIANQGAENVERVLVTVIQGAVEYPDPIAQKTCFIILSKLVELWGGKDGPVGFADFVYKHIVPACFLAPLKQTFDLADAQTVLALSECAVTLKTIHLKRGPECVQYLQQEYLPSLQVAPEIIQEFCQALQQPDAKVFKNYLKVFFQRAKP
# UniProt Q9UGR2: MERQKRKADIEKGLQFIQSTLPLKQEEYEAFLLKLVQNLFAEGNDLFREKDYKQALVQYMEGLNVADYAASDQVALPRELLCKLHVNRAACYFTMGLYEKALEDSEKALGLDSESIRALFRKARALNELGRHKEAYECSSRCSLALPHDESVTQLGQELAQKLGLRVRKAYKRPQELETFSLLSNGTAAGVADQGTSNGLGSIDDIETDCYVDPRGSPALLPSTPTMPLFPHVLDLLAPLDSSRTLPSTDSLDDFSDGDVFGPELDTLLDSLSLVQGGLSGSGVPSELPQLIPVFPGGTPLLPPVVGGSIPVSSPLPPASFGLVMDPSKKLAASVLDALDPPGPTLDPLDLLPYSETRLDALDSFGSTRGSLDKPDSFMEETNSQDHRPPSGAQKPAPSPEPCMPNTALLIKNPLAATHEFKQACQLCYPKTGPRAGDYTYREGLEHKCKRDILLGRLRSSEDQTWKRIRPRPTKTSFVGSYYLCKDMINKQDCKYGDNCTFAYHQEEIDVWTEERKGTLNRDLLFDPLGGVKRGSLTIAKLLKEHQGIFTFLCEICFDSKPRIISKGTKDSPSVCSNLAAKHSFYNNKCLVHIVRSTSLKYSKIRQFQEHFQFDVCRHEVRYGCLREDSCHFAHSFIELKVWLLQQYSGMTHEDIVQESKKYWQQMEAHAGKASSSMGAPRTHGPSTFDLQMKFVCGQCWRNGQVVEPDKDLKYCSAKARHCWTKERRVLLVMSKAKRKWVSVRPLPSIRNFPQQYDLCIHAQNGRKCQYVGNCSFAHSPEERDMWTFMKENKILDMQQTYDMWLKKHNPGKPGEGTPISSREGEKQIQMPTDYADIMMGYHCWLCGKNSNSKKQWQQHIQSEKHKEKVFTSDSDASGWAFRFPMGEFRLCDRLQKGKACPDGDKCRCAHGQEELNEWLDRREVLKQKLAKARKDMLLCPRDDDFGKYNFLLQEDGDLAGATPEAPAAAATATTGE
# This is one part of the list.
# Assays:
# [1] = biological target: XPOT_O43592_877_HIVPACFLAPLK (UniProt O43592); assay: probe-labelled cysteine peptide fold change vs DMSO (competition) (log2 fold change); higher = less target engagement (more negative = stronger competition); conditions: THP-1, incubation time: 4 h
# [2] = biological target: ZC3H7B_Q9UGR2_590_CLVHIVR (UniProt Q9UGR2); assay: as above; conditions: THP-1, incubation time: 4 h
# 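Note: competitive profiling in live THP-1 cells: cysteine peptides tagged with an iodoacetamide desthiobiotin (IA-DTB) probe, intensity after compound treatment relative to DMSO-treated cells.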
smiles,measurement,setting,value
Cc1cc(C(=O)N2CCCN(C(=O)CCl)CC2)ccc1-c1ccccc1 [compound 10],probe-labelled cysteine peptide fold change,[1]; 10 µM,-0.00347
same,probe-labelled cysteine peptide fold change,[1]; 50 µM,0.308
same,probe-labelled cysteine peptide fold change,[2]; 10 µM,-0.0078
same,probe-labelled cysteine peptide fold change,[2]; 50 µM,-0.0229
